Test results published in PubChem BioAssay AID2685 (National Center for Advancing Translational Sciences (NCATS), 2010).
This is one part of the list. The main result of the screen is listed elsewhere. These columns were measured beside it and carry no call. Compounds called inactive in the main read-out are mostly missing here. Potencies come from curve fits of mixed quality, noted in brackets.

Test: qHTS Assay for Lipid Storage Modulators in Drosophila S3 Cells;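 on cell number change: cells counted by Cell Tracker Red CMTPX staining in the red channel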
Conditions: BODIPY lipid droplet fluorescence, 18-24 h; for cell number change: measured here: cell count max response, cells fed with added oleic acid
Method in brief: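 Drosophila S3 cells loaded with oleic acid (400 uM, as added) and compounds at several concentrations; lipid droplets imaged by 488-nm laser-scanning cytometry, 500–530 nm intensity and object ratio to cell channel. Percent activity normalized to 20 uM Triacsin C.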

[1] = measured here: lipid fluorescence (Fed channel) AC50, cells fed with added oleic acid
[2] = measured here: cell number channel AC50, cells fed with added oleic acid

| SMILES | AC50 [1] | cell number change [%] | AC50 [2] |
| --- | --- | --- | --- |
| O=C(NCCc1ccccc1)C1CCN(S(=O)(=O)c2ccc(Br)s2)CC1 | 11.6 µM [rising, single point] |  |  |
| Cc1ccc(NC(=O)CSc2ccccc2)cc1S(=O)(=O)N1CCOCC1 | 0.731 µM [falling, single point] | -50 |  |
| O=C(N/N=C/c1cc(Cl)cc([N+](=O)[O-])c1O)NC12CC3CC(CC(C3)C1)C2 | 2.91 µM [falling, partial curve, poor fit] | -31 | 32.6 µM [falling, single point] |
| C[C@@H]1CCC(=O)N(CC[C@H](N=[N+]=[N-])c2ccccc2)CC1 | 29.1 µM [falling, single point] | 12.6 |  |
| CCOc1ccccc1NC(=O)C1CCCN(S(=O)(=O)c2ccccc2)C1 (stereo not given) | 16.4 µM [falling, single point] | -14.6 |  |
| COc1ccc(S(=O)(=O)N(Cc2nc3ccccc3c(=O)[nH]2)C2CCCC2)cc1 | 5.8 µM [rising, partial curve] | 1.44 |  |
| COc1cc2cc(C(=O)NCCc3ccccc3)[nH]c2cc1OC |  | 45.4 | 4.61 µM [rising, single point] |
| CCOC(=O)c1ccccc1NC(=O)c1c(F)c(F)c(F)c(F)c1F | 29.1 µM [falling, single point] | -34.2 | 29.1 µM [falling, single point] |
| Cc1ccc2c(CN3CC(C)CC(C)C3)cc(=O)oc2c1C (stereo not given) | 29.1 µM [rising, single point] | 104 | 20.6 µM [rising, partial curve] |
| Cc1ccc(S(=O)(=O)N2CCC[C@H]2C(=O)OCCN2C(=O)c3ccccc3C2=O)cc1 |  | -8 |  |
| Cc1cc(OCC(=O)NN2C(=O)c3ccccc3C2=O)ccc1Cl |  | 46.7 | 2.06 µM [rising, full curve, poor fit] |
| CC1CCCCN1C(=O)COC(=O)c1cc(-c2cccs2)nn1-c1ccccc1 (stereo not given) | 6.51 µM [rising, full curve] | -4.48 |  |
| CCN(CC)c1ccc(C=Nc2ccc(OC)c(S(=O)(=O)N3CCOCC3)c2)c(O)c1 |  | -8.94 |  |
| COc1ccccc1NC(=O)c1cc2cc(Br)ccc2cc1O |  | -49.5 | 29.1 µM [falling, single point] |
| Nc1nc(N2CCOCC2)nc2ccccc12 |  | 32.5 | 9.2 µM [rising, partial curve] |
| OC12CCCCC1C(c1ccc3c(c1)OCO3)N(Cc1cccc(F)c1)CC2 (stereo not given) | 0.651 µM [falling, full curve, poor fit] | -30 | 0.731 µM [falling, full curve, poor fit] |
| Cc1cccc(C)c1NC(=O)C(=O)NCC1CCCN1S(=O)(=O)c1cccs1 (stereo not given) | 8.2 µM [rising, partial curve] |  |  |
| Cn1c(SCC(=O)N2CCCC2)nnc1-c1cccs1 | 29.1 µM [rising, single point] | 8.7 |  |

| SMILES | AC50 [1] | cell number change [%] | AC50 [2] |
| --- | --- | --- | --- |
| CCC1CSC(Nc2ccc(C(=O)/C=C/c3ccc(Oc4ccccc4)cc3)cc2)=N1 (stereo not given) | 29.1 µM [falling, partial curve, poor fit] | 50 | 6.51 µM [rising, partial curve, poor fit] |
| N#C/C(=C/c1ccc(-c2ccc(S(N)(=O)=O)cc2)o1)C(=O)Nc1ccccc1 |  | -33.5 | 23.1 µM [falling, single point] |
| O=C(NCCCN1CCOCC1)c1cc(-c2ccc(Cl)c(Cl)c2)on1 | 29.1 µM [rising, single point] | -11.9 |  |
| CC(C)C(NS(=O)(=O)c1ccccc1)C(=O)N1CCN(C(=O)c2ccco2)CC1 (stereo not given) | 29.1 µM [rising, single point] | -12.5 |  |
| CC(=O)Nc1ccc(NC(=O)CC2(CC(=O)N3CCOCC3)CCCC2)cc1 | 0.00517 µM [rising, full curve, poor fit] | -5.76 |  |
| Cc1ccc(SCc2nc3ncccn3c2Br)cc1 | 3.66 µM [rising, full curve, poor fit] | 36.7 | 5.8 µM [rising, full curve, poor fit] |
| O=C(NCCc1ccccn1)c1ccc(OC2CCN(Cc3ccccn3)CC2)cc1 |  | 25.5 |  |
| O=C(OC(C(=O)NCC1CCCO1)c1ccc(F)cc1)c1ccco1 (stereo not given) | 0.00651 µM [falling, full curve] | -2.08 |  |
| Cc1nc2nc(SCc3ccccc3)nn2c(C)c1C | 2.91 µM [rising, partial curve, poor fit] | -21.2 |  |
| COC1CCN(Cc2c(C(=O)N3C[C@@H](C)O[C@@H](C)C3)nc3ccc(Cl)cn23)CC1 | 20.6 µM [falling, partial curve, poor fit] | -27.4 |  |
| CNC(=O)/C(=C\c1ccc([N+](=O)[O-])cc1)NC(C)=O | 0.0058 µM [falling, full curve, poor fit] | -26.8 |  |
| Cc1[nH]c2ccccc2c1N=Nc1cccc(C(=O)O)c1 | 6.51 µM [rising, partial curve] | 12.1 |  |
| Cn1c(SCC(=O)N2c3ccccc3Sc3ccccc32)nc2ccccc21 | 0.58 µM [falling, partial curve] | 2.7 | 6.51 µM [rising, single point] |
| Cc1cc(C)cc(OCC(=O)Nc2cccc(S(=O)(=O)NC3=NCCC3)c2)c1 | 0.291 µM [rising, full curve, poor fit] | 22.8 | 7.31 µM [rising, partial curve, poor fit] |
| Cc1ccc(N(C(=O)Cn2nnc3ccccc32)C(C(=O)NC2CCCCC2)c2cn(C)nc2C)cc1 (stereo not given) | 20.6 µM [rising, single point] | 0.326 |  |
| NC(=O)N1CCCC1C(=O)Nc1ccc(Cl)c(Cl)c1 (stereo not given) | 20.6 µM [falling, partial curve] | 23.8 |  |
| CC1(C)CC(CC(=O)O)(c2ccccc2)CCO1 (stereo not given) | 29.1 µM [falling, single point] | -8.81 |  |
| CCN(CC)CCCNc1nc2cc(OC)c(OC)cc2c2nc(-c3ccccc3)nn12 | 29.1 µM [falling, single point] | -28.6 |  |

In the list so far, these contain a nitro group on carbon.

| SMILES | AC50 [1] | cell number change [%] | AC50 [2] |
| --- | --- | --- | --- |
| O=C(N/N=C/c1cc(Cl)cc([N+](=O)[O-])c1O)NC12CC3CC(CC(C3)C1)C2 | 2.91 µM [falling, partial curve, poor fit] | -31 | 32.6 µM [falling, single point] |
| CNC(=O)/C(=C\c1ccc([N+](=O)[O-])cc1)NC(C)=O | 0.0058 µM [falling, full curve, poor fit] | -26.8 |  |
